This passage reports binding results from article PMC7846557.

Protein sequences, listed by entry. Tags and fused reporters are not part of them.
UniProt Q91WB2: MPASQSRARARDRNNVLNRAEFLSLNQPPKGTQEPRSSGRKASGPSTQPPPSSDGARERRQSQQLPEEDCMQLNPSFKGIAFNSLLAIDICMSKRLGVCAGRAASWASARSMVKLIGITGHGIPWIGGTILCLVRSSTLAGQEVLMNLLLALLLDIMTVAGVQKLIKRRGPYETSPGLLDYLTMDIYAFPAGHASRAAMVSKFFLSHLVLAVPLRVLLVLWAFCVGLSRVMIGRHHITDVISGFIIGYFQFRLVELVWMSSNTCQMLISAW
UniProt Q6DVA0: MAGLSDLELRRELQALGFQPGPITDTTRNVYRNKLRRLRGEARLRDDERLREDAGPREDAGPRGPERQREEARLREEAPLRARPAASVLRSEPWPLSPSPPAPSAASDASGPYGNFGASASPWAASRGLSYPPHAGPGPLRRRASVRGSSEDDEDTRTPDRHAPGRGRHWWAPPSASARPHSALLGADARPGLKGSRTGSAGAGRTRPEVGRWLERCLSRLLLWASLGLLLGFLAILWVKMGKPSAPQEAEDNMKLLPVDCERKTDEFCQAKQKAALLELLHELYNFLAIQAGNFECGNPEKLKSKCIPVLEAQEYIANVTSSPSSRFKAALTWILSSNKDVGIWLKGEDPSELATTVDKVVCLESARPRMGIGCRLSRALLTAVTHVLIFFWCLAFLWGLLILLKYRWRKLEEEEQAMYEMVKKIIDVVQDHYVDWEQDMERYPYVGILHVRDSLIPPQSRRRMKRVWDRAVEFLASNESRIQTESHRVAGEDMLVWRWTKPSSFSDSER

For this assay, the target named is Net39-3xFLAG-HA (mouse) (UniProt Q91WB2). Kind of assay: co-IP; C2C12 myotubes stably expressing Net39-3xFLAG-HA or empty vector; lysis in 50 mM Tris, 150 mM NaCl, 0.2% Triton; anti-FLAG M2 magnetic beads, wash with 350 mM NaCl, elution with 3xFLAG peptide; blot for endogenous LEMD2.

No constants are given. Whether binding was seen depends on the method and setting. Binding seen in cells or lysates may run through a third protein. Some entries that bind do so weakly or less than the wild type.

Turning to LEMD2 (from UniProt Q6DVA0 1-511), the binding result is “binds”.
